Measurements from publication PMC10504565.
No constants are given. Whether binding was seen depends on the method and setting. Binding seen in cells or lysates may run through a third protein. Some binding calls cover weakened binding; strength is not graded here.

Sequences of proteins named here, by UniProt entry; tags and fusion partners are left off. A change or cut given only in a name is not applied to a line headed by its entry.
UniProt P29350: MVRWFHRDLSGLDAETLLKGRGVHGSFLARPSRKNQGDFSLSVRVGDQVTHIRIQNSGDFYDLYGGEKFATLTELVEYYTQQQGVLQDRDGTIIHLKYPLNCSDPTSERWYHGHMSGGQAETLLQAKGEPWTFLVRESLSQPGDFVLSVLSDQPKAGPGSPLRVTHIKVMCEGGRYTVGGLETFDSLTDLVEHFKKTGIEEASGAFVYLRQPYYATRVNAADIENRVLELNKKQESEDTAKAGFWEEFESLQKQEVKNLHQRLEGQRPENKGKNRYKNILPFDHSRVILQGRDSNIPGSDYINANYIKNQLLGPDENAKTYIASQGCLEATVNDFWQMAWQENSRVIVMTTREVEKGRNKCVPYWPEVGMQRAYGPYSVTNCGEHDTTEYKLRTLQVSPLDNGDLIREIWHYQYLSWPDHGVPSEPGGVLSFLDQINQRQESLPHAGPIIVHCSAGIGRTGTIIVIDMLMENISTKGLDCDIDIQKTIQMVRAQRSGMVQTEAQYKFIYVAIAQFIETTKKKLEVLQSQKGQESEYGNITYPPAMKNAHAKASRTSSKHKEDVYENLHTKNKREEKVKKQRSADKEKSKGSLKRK
UniProt P51692: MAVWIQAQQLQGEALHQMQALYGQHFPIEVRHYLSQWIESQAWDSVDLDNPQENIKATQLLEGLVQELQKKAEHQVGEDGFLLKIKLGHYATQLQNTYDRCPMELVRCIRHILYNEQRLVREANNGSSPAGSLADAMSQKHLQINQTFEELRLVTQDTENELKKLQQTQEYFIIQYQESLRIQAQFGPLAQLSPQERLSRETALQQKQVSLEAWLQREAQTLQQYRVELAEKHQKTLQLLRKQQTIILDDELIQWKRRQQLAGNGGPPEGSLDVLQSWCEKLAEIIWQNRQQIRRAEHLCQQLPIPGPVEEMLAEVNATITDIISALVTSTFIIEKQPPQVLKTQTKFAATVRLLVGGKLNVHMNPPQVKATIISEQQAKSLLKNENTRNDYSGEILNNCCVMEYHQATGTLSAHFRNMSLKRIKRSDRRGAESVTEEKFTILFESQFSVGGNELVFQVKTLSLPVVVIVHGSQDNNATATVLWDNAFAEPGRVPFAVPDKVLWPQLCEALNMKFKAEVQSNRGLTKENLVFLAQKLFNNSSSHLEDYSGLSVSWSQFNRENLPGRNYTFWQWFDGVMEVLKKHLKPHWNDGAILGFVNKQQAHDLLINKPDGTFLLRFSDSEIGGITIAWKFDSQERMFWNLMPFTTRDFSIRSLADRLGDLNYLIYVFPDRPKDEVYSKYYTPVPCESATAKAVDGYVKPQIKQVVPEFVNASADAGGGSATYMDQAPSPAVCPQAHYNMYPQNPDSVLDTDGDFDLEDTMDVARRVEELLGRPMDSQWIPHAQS
UniProt P42229: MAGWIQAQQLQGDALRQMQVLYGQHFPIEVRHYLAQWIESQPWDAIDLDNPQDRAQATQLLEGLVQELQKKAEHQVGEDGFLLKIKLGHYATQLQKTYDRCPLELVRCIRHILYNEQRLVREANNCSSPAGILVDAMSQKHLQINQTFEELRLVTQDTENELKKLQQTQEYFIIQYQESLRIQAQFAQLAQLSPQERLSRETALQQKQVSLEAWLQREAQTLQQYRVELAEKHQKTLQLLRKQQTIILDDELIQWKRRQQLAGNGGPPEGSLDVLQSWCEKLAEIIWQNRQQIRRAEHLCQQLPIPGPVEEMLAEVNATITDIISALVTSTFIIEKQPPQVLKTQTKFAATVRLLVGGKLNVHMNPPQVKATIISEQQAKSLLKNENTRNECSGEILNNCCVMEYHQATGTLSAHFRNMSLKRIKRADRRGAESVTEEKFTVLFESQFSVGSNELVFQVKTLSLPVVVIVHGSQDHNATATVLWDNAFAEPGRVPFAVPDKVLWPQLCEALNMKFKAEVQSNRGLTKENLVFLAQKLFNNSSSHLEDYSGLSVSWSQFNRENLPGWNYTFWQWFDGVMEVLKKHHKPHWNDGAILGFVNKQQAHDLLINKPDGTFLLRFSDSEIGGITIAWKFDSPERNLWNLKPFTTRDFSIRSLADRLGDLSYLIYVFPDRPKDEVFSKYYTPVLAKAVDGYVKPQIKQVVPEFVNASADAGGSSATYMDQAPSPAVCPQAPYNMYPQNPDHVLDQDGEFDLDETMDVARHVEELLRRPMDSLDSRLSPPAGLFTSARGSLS

Tests used:
[1] = biological target: FLAG3-SHP-1 (WT), transiently expressed in HepG2 cells (UniProt P29350); assay: co-IP; HepG2 cells coexpressing FLAG-tagged STAT5B and FLAG-tagged SHP-1 constructs; immunoprecipitation with a SHP-1-specific antibody
[2] = biological target: FLAG3-SHP-1-C453S, transiently expressed in HepG2 cells (UniProt P29350); assay: as above
[3] = biological target: FLAG3-SHP-1 (WT), transiently expressed in HepG2 cells (UniProt P29350); assay: co-IP; HepG2 cells cotransfected with FLAG3-SHP-1 constructs and Myc3-POLR2J, Myc3-POLR2C or V5-STAT5A, harvested after 24 h; lysis in 20 mM Tris-HCl pH 7.5, 140 mM NaCl, 1% NP-40, 10% glycerol
[4] = biological target: FLAG3-SHP-1-C453S, transiently expressed in HepG2 cells (UniProt P29350); assay: as above

Substance	binding [1]	binding [2]	binding [3]	binding [4]
FLAG-tagged STAT5B, transiently expressed in HepG2 cells (from UniProt P51692 1-787)	binds	binds		
V5-tagged STAT5A, transiently expressed in HepG2 cells (from UniProt P42229 1-794)			binds	binds
